In PMC10423226, “Identification of a drug binding pocket in TMEM16F calcium-activated ion channel and lipid scramblase” (Nature Communications, 2023) one finds binding data, which are given here for one molecule.

No constants are given. Whether binding was seen depends on the method and setting. Some entries that bind do so weakly or less than the wild type.

In the experiment the target is TMEM16F (mouse (printed as mTMEM16F, for the cell lines)) (UniProt Q6P9J9). The experiment in a line: cryo-EM structure; TMEM16F in MSP2N2-SoyPC nanodiscs with PIP2 and 4 mM CaCl2, without drug or with 50 uM niclosamide or 100 uM 1PBC; no C2 symmetry imposed; both purified.

B1: TMEM16F (natural protein, UniProt Q6P9J9 1-911, looked up)
chain: MQMMTRKVLLNMELEEDDDEDGDIVLENFDQTIVCPTFGSLENQQDFRTPEFEEFNGKPDSLFFTDGQRRIDFILVYEDESKKENNKKGTNEKQKRKRQAYESNLICHGLQLEATRSVSDDKLVFVKVHAPWEVLCTYAEIMHIKLPLKPNDLKTRSPFGNLNWFTKVLRVNESVIKPEQEFFTAPFEKSRMNDFYILDRDSFFNPATRSRIVYFILSRVKYQVMNNVNKFGINRLVSSGIYKAAFPLHDCRFNYESEDISCPSERYLLYREWAHPRSIYKKQPLDLIRKYYGEKIGIYFAWLGYYTQMLLLAAVVGVACFLYGYLDQDNCTWSKEVCDPDIGGQILMCPQCDRLCPFWRLNITCESSKKLCIFDSFGTLIFAVFMGVWVTLFLEFWKRRQAELEYEWDTVELQQEEQARPEYEAQCNHVVINEITQEEERIPFTTCGKCIRVTLCASAVFFWILLIIASVIGIIVYRLSVFIVFSTTLPKNPNGTDPIQKYLTPQMATSITASIISFIIIMILNTIYEKVAIMITNFELPRTQTDYENSLTMKMFLFQFVNYYSSCFYIAFFKGKFVGYPGDPVYLLGKYRSEECDPGGCLLELTTQLTIIMGGKAIWNNIQEVLLPWVMNLIGRYKRVSGSEKITPRWEQDYHLQPMGKLGLFYEYLEMIIQFGFVTLFVASFPLAPLLALVNNILEIRVDAWKLTTQFRRMVPEKAQDIGAWQPIMQGIAILAVVTNAMIIAFTSDMIPRLVYYWSFSIPPYGDHTYYTMDGYINNTLSVFNITDFKNTDKENPYIGLGNYTLCRYRDFRNPPGHPQEYKHNIYYWHVIAAKLAFIIVMEHIIYSVKFFISYAIPDVSKITKSKIKREKYLTQKLLHESHLKDLTKNMGIIAERIGGTVDNSVRPKLE
modifications: glycans on the extracellular loops
notes: Sample in lipid nanodiscs (MSP2N2, SoyPC) with PIP2 and 4 mM CaCl2; also called mTMEM16F; TMEM16F dimer; source: HEK293s cells, extracted and purified in DDM/CHS, reconstituted in MSP2N2-SoyPC nanodiscs, FPLC
On to B1, for which the binding result was “binds”.
